In PubChem BioAssay AID485314 (National Center for Advancing Translational Sciences (NCATS), 2010):
The whole screen tested about 340,000 compounds, of which about 4,500 (1.3%) were called active. This list was built around the results that the source calls inconclusive (neither active nor inactive); the mix of calls is not that of the screen. Calls follow the shape of the dose curve; as a rule, active = well fitted inhibition curve with a large enough effect; inconclusive = small, poorly fitted or top-dose-only effect, or another doubt; inactive = no such curve, though single readings can be large or run the other way. Potencies of inconclusive entries are doubtful fits and often do not repeat.

target: DNA polymerase beta (Homo sapiens) (UniProt P06746); assay: qHTS Assay for Inhibitors of DNA Polymerase Beta; conditions: Pol beta primer extension/strand displacement, fluorescence kinetic; activity change, negative = inhibition: at 114 µM (top of the series)
How it was run: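 Kinetic readout of DNA synthesis with strand displacement by Pol beta. Compound and 10 nM enzyme sit 15 min at room temperature; 50 nM substrate starts the reaction, read immediately and at 10 min.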
% is scaled to controls: 0 for no effect and ±100 for the full control effect; potency is read from the fitted curve at half-maximal effect.

SMILES	Potency	activity change, negative = inhibition
Cc1ccc2ccc(C(Nc3ccccn3)c3ccccc3)c(O)c2n1 (centres undefined)	inactive	–
CC1=Nc2ccc(C)cc2/C1=C/c1c(N)n2nc(CC(=O)N3CCOCC3)sc2nc1=O	–	inactive: -1.36%
COC(=O)c1ccccc1-c1ccc(/C=N/NC(=O)c2cc3ccccc3o2)o1	inconclusive: 56.2 µM [inhibitor, partial curve]	–
N/C(Cc1ccc([N+](=O)[O-])cc1)=N\OC(=O)C1CCCCC1	inconclusive: 89.1 µM [inhibitor, single point]	–
COc1ccc(S(=O)(=O)NCCCn2ccnc2)cc1Cl	inconclusive: 44.7 µM [inhibitor, partial curve]	–
O=C(CCCN1C(=O)/C(=C/c2cccs2)SC1=S)Nc1cccc(O)c1	inconclusive: 89.1 µM [inhibitor, single point]	–
CC(C)(C)c1ccc(NC(=O)COC(=O)C2(C)CC2(Cl)Cl)cc1 (centres undefined)	inconclusive: 79.4 µM [inhibitor, single point]	–
CC(=O)c1nnn(-c2nc(N3CCCC3)nc(N(c3ccccc3)c3ccccc3)n2)c1C	inconclusive: 100 µM [inhibitor, single point]	–
Cc1cccc(N2CCN(C(=O)c3ccc4c(c3)NC(=O)C(CSCc3cccc(F)c3)N4)CC2)c1C (centres undefined)	inconclusive: 56.2 µM [inhibitor, partial curve, poor fit]	–
Cc1cccc(NC(=O)C(=O)NCC(c2cccnc2)N2CCOCC2)c1 (centres undefined)	–	inactive: -0.569%
Cc1cc2nc3ccc(=[N+](C)C)cc-3sc2cc1N	active: 8.91 µM	–
COc1ccc(C)cc1NC(=O)C(=O)NCCc1csc(-c2ccc(C)cc2)n1	–	inactive: -3.08%
Cn1c(=O)c2c(SCC(=O)NCc3ccco3)nc(-c3ccccc3Cl)nc2n(C)c1=O	inconclusive: 11.2 µM [inhibitor, full curve]	–
COc1ccccc1-[n+]1c(C)cc(/C=C2\Sc3ccccc3N2C)cc1C	–	inconclusive: -64.5% [inhibitor]
O=C(/C=C/c1ccco1)Nc1ccc2nn(-c3ccccc3)nc2c1	inconclusive: 15.8 µM [inhibitor, full curve]	–
COC(=O)[C@H]1C[C@@H]1[C@H](NC(=O)OCc1ccccc1)c1ccccc1	inconclusive: 89.1 µM [inhibitor, single point]	–
Cc1ccc2cccc(OCC(=O)c3cc(C)n(Cc4ccco4)c3C)c2n1	active: 11.2 µM	–
Cc1cc(/C=C2\C(=N)N3N=C(S(C)(=O)=O)SC3=NC2=O)c(C)n1Cc1ccccc1	inconclusive: 22.4 µM [inhibitor, full curve, poor fit]	–
Cc1cccc(-c2n[nH]c(=S)n2/N=C/C=C/c2ccco2)c1	inconclusive: 8.91 µM [inhibitor, full curve, poor fit]	–

As entered above.
In Potency, Cc1ccc2cccc(OCC(=O)c3cc(C)n(Cc4ccco4)c3C)c2n1 is entered as active: 11.2 µM
In Potency, O=C(CCCN1C(=O)/C(=C/c2cccs2)SC1=S)Nc1cccc(O)c1 is entered as inconclusive: 89.1 µM [inhibitor, single point]
